Test results from the supplement of paper PMC10849652.
The other results are listed elsewhere or left out. Residues, ends and D or L forms follow the SMILES beside them. *: point of attachment. Cbz = O=C(OCc1ccccc1)*

Protein sequences, listed by entry. Tags and fused reporters are not part of them. Lines headed by an entry give the natural chain unless they say otherwise; changes in a name come on top.
UniProt Q96KP4: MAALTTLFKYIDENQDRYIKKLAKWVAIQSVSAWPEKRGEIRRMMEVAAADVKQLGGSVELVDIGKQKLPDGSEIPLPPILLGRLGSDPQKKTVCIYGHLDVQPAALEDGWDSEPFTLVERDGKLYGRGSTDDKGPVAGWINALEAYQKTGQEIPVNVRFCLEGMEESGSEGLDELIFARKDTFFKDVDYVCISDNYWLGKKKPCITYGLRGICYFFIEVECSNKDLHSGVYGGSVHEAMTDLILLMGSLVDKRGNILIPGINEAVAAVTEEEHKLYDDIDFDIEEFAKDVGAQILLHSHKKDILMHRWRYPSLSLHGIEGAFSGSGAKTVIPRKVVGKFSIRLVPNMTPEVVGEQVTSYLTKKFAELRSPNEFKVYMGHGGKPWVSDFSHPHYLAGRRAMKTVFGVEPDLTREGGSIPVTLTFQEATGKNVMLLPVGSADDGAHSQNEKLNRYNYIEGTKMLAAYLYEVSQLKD
UniProt P61024, whole entry, looked up: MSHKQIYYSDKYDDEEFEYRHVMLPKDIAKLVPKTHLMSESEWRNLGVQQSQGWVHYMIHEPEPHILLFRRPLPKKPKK
UniProt O95628: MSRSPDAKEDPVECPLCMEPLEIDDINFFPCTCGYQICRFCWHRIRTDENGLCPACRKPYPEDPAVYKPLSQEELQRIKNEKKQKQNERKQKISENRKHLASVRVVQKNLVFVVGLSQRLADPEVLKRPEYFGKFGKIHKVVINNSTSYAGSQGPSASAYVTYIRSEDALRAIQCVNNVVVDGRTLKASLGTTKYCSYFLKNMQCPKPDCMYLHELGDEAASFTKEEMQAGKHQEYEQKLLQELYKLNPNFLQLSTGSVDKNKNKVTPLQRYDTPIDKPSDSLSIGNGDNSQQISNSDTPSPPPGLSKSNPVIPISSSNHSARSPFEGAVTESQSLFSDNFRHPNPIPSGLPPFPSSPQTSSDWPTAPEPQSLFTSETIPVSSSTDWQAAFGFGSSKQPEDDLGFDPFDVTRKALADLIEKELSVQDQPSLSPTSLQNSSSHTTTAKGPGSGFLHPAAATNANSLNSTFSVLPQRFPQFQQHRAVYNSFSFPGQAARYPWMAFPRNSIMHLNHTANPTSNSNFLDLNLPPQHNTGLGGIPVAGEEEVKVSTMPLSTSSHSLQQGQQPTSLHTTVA
UniProt Q9UIV1, whole entry, looked up: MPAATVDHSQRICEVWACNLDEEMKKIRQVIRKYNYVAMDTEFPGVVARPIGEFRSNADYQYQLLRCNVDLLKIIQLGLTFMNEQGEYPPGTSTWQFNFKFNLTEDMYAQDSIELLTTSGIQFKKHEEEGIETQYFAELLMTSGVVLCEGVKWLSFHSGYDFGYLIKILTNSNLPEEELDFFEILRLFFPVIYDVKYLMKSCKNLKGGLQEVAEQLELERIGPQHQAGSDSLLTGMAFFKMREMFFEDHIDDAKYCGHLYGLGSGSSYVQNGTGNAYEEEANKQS
UniProt Q9H9A5, whole entry, looked up: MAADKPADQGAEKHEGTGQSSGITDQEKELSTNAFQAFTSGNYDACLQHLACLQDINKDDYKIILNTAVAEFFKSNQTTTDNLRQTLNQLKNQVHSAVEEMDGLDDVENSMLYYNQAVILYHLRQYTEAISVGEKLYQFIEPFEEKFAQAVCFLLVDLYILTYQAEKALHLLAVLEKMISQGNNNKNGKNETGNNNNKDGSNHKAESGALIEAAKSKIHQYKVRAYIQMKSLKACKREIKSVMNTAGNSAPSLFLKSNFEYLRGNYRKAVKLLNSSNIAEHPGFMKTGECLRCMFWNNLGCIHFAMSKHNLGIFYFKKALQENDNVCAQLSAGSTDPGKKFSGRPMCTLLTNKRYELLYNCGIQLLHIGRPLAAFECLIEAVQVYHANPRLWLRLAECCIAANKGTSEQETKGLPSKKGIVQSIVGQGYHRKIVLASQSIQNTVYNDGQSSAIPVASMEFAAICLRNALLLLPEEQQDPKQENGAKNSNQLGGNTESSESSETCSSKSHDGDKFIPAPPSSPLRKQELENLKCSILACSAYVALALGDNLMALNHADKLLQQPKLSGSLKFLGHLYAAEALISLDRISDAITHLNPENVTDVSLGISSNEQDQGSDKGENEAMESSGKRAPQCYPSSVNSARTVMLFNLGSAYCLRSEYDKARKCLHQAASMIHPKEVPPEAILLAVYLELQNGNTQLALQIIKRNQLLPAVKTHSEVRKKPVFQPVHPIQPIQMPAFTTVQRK
UniProt P02452, whole entry, looked up: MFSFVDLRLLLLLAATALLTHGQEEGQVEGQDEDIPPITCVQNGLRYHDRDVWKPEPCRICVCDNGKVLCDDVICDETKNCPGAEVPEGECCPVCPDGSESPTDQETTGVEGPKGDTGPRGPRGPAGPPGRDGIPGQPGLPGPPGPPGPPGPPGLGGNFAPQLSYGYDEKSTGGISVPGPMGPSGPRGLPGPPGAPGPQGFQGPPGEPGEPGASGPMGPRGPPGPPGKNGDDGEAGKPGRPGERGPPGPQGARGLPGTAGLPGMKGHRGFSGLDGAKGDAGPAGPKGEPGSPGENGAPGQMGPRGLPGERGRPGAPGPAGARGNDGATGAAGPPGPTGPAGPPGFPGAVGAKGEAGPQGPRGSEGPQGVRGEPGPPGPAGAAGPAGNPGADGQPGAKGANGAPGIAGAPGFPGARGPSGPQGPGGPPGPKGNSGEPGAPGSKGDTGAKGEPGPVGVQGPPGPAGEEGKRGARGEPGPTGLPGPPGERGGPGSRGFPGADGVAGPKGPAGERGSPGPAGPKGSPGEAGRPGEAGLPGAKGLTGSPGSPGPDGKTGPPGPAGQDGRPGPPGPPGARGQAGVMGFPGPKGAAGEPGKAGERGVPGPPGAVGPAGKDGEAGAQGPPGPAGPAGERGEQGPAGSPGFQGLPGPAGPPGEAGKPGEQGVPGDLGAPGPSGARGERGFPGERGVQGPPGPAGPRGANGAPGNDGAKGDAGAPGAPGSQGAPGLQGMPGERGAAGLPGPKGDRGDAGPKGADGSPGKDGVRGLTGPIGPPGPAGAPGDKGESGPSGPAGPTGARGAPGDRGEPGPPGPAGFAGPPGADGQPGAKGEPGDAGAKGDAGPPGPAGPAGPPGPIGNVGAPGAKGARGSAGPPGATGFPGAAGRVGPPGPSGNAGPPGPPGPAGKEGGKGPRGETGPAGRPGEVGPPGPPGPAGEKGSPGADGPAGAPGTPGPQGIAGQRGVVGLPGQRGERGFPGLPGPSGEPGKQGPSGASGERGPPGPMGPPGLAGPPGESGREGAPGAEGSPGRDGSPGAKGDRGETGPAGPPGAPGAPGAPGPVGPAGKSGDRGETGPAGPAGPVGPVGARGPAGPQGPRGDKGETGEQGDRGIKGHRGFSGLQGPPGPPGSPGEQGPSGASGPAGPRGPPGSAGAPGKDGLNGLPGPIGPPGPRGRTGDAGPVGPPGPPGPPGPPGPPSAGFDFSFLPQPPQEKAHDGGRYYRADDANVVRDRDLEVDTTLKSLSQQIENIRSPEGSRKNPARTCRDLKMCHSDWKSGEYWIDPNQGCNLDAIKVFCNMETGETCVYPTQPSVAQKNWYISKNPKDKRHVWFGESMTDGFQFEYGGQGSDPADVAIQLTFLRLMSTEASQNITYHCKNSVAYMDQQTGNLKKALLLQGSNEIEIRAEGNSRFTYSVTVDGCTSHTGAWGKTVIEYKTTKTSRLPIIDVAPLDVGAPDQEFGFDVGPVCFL
UniProt Q8N5K1: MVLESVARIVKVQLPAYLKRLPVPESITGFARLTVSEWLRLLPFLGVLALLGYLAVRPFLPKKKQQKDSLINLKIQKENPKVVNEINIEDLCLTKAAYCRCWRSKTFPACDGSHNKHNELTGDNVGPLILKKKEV
UniProt Q13057: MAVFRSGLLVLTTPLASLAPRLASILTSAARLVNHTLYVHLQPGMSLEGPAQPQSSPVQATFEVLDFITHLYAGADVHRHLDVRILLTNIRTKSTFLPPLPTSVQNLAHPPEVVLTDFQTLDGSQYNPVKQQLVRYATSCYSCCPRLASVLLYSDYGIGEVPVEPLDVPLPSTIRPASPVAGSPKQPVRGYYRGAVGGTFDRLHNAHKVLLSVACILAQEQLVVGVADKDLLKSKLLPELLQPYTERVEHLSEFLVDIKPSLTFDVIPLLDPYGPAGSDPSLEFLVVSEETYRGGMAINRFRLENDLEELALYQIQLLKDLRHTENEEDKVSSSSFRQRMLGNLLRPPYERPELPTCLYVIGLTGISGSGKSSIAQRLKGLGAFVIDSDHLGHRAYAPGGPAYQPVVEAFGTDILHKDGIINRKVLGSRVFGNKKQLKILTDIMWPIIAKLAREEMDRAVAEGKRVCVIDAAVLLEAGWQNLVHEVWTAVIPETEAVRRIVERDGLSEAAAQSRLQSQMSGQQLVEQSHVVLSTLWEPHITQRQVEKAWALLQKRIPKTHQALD
UniProt Q9BW66: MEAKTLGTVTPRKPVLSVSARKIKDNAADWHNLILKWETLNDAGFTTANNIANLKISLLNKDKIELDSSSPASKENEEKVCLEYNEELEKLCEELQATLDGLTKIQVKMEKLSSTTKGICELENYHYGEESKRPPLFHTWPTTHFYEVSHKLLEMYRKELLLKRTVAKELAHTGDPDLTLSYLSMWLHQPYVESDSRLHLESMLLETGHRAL
UniProt Q8IWV2: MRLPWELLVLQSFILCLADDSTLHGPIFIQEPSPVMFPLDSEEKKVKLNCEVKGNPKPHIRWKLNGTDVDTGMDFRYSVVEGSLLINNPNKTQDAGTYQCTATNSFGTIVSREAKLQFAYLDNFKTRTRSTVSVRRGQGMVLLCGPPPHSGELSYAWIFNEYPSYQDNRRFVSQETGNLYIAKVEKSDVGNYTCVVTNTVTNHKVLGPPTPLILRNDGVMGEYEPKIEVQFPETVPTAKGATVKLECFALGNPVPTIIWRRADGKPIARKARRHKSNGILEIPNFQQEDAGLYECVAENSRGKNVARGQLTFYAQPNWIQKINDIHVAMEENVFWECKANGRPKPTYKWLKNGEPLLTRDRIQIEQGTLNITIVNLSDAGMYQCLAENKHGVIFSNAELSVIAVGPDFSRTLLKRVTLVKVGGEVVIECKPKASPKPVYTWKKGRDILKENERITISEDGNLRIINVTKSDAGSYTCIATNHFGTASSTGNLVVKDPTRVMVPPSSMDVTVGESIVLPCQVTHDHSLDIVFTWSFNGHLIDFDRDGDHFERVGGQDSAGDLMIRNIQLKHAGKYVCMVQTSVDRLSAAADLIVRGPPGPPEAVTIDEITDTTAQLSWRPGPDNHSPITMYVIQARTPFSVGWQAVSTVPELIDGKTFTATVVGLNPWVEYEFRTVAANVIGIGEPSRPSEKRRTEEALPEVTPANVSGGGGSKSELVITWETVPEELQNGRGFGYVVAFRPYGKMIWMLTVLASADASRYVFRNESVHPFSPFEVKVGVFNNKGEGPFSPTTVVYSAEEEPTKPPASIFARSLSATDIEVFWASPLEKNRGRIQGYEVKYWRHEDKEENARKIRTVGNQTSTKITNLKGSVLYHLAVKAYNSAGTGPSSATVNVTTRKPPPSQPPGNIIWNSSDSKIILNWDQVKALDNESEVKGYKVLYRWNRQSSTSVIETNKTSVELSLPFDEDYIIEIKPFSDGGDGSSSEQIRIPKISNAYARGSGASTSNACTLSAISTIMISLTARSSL
UniProt O43529: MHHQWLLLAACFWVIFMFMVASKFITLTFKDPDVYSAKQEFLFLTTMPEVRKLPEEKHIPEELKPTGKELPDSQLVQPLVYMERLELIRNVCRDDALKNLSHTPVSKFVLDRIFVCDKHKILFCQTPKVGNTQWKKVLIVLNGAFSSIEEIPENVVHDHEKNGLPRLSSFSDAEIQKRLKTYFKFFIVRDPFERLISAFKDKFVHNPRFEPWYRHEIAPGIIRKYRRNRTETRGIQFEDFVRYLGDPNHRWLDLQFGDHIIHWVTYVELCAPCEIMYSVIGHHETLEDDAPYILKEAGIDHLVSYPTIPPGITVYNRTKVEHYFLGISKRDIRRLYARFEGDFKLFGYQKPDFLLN
UniProt Q99439: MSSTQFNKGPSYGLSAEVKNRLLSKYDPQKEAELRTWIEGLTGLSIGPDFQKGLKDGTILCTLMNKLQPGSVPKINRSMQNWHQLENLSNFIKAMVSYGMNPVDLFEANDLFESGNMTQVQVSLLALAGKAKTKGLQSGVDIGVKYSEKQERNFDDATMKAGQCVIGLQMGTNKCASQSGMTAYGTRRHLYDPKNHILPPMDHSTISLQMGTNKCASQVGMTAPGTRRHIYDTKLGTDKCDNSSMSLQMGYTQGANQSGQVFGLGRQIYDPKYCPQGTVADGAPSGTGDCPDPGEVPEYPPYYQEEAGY

Experiments:
Assay in all cases: log2 fold change, soluble protein after heating vs DMSO (PISA); higher = thermal stabilisation; K562 cells, 10 uM, 30 min; active = over 0.2 and 3.5 SD of the protein, either way, in both replicates (recomputed)
erlotinib = compound: C#Cc1cccc(Nc2ncnc3cc(OCCOC)c(OCCOC)cc23)c1 [erlotinib]
Procedure, shortened: (§1)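 K562 cells (2×10^6 cells/mL) were treated with 10 μM compound for 30 min, and aliquots were heated for 3 min over 48°C-58°C. Pooled aliquots were extracted in PBS with 0.5% NP-40 at 4°C, and the supernatant after 21,000xg for 90 min was measured by TMTpro 16plex LC-MS/MS with channel sums equalised. Reported thermal stability, relative to control samples and from duplicates, is a log2 fold change.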

[1] = compound: C/C(=N\NC(=O)C1=CC(=CC=C1)S(=O)(=O)N2CCOCC2)/C3=C(C=CC(=C3)Cl)O
Procedure, shortened: as §1

[2] = compound: C1=CC(=C(C=C1Cl)C2=NC3=NC=CN=C3C(=N2)NC4=CC=NC=C4)F
Procedure, shortened: as §1

[3] = compound: C1=CC(=CC=C1C2=NC3=C(N2)C=C(C=C3)C(=O)N)OC4=CC=C(C=C4)Cl
Procedure, shortened: as §1

[4] = compound: C1=CC2=C(C=CC(=C2)/C=C\3/C(=O)NC(=NCC4=CC=CS4)S3)N=C1
Procedure, shortened: as §1

[5] = compound: C1=CC2=NC=CN=C2C=C1/C=C/3\C(=O)NC(=O)S3
Procedure, shortened: as §1

[6] = compound: C1=CC=C(C=C1)C2=NC(=C(N2)C3=CC=NC=C3)C4=CC(=C(C=C4)Cl)O
Procedure, shortened: as §1

[7] = compound: C1=CC=C2C(=C1)C3=NNC4=CC=CC(=C43)C2=O
Procedure, shortened: as §1

[8] = compound: C1CCN(C1)C(=O)NC2=CC=CC(=C2)NC3=NC=C(C(=N3)NCCC4=CN=CN4)Br
Procedure, shortened: as §1

[9] = compound: C1CN(CCC1(CC2=CC=C(C=C2)Cl)N)C3=NC=NC4=C3C=CN4
Procedure, shortened: as §1

IRAK-1-4 Inhibitor I = compound: C1COCCN1CCN2C3=CC=CC=C3N=C2NC(=O)C4=CC(=CC=C4)[N+](=O)[O-] [IRAK-1-4 Inhibitor I]
Procedure, shortened: as §1

ibrutinib = compound: C=CC(=O)N1CCC[C@@H](n2nc(-c3ccc(Oc4ccccc4)cc3)c3c(N)ncnc32)C1 [ibrutinib]
Procedure, shortened: as §1

[10] = compound: CC(=O)c1cnc2ccc(-c3cc(Cl)c(O)c(Cl)c3)nc2c1N[C@H]1CC[C@H](CN(C)C)CC1
Procedure, shortened: as §1

ralimetinib = compound: CC(C)(C)Cn1c(N)nc2ccc(-c3[nH]c(C(C)(C)C)nc3-c3ccc(F)cc3)nc21 [ralimetinib]
Procedure, shortened: as §1

[11] = compound: CC(C)(O)CC(=O)NCCn1ccc2ncnc(Nc3ccc(Oc4cccc(C(F)(F)F)c4)c(Cl)c3)c21
Procedure, shortened: as §1

[12] = compound: CC(C)C1=C2N=C(C=C(N2N=C1)NCC3=CC=CC=C3)NCCCCCCN
Procedure, shortened: as §1

[13] = compound: CC(C)C[C@@H](C=O)NC(=O)[C@H](CC(C)C)NC(=O)[C@H](CC(C)C)NC(=O)OCc1ccccc1
Procedure, shortened: as §1

pinometostat = compound: CC(C)N(C[C@H]1O[C@@H](n2cnc3c(N)ncnc32)[C@H](O)[C@@H]1O)[C@H]1C[C@@H](CCc2nc3cc(C(C)(C)C)ccc3[nH]2)C1 [pinometostat]
Procedure, shortened: as §1

[14] = compound: CC1=C(C2=C(C=C1)C(=O)C3=CC=CC=C3N2CCCN)C
Procedure, shortened: as §1

[15] = compound: CC1=C(C(CC(=O)N1)C2=CC=C(C=C2)C(F)(F)F)C(=O)NC3=C(C=C4C(=C3)C=NN4)F
Procedure, shortened: as §1

Target	log2 fold change (erlotinib)	log2 fold change [1]	log2 fold change [2]	log2 fold change [3]	log2 fold change [4]	log2 fold change [5]	log2 fold change [6]	log2 fold change [7]	log2 fold change [8]	log2 fold change [9]	log2 fold change (IRAK-1-4 Inhibitor I)	log2 fold change (ibrutinib)	log2 fold change [10]	log2 fold change (ralimetinib)	log2 fold change [11]	log2 fold change [12]	log2 fold change [13]	log2 fold change (pinometostat)	log2 fold change [14]	log2 fold change [15]
CNDP2 (UniProt Q96KP4)	inactive: 0.035	inactive: -0.099	inactive: 0.058	inactive: 0.022	inactive: 0.091	inactive: -0.024	inactive: 0.064	inactive: 0.058	inactive: 0.023	inactive: 0.072	inactive: 0.098	inactive: 0.002	inactive: -0.01	inactive: 0.07	inactive: -0.005	inactive: -0.011	inactive: -0.029	inactive: -0.035	inactive: 0.042	–
CKS1B (UniProt P61024)	inactive: -0.014	inactive: 0	inactive: 0.028	inactive: -0.013	inactive: 0.044	inactive: 0.029	inactive: 0.11	inactive: -0.045	inactive: -0.012	inactive: 0.034	inactive: -0.011	inactive: -0.008	inactive: -0.127	active: 0.222	inactive: 0.001	inactive: 0.027	inactive: -0.031	inactive: -0.044	inactive: 0.054	–
CNOT4 isoform 6 (UniProt O95628)	inactive: 0.004	inactive: 0.06	inactive: 0.026	inactive: 0.014	inactive: 0.03	inactive: 0.003	inactive: -0.007	inactive: -0.043	inactive: -0.011	inactive: 0.044	inactive: 0.044	inactive: 0.016	inactive: -0.062	inactive: -0.048	inactive: 0.002	inactive: 0.038	inactive: -0.019	inactive: -0.025	inactive: 0.051	–
CNOT7 (UniProt Q9UIV1)	inactive: 0.025	inactive: -0.002	inactive: -0.059	inactive: 0.018	inactive: 0.194	inactive: -0.044	inactive: 0.128	inactive: 0.048	inactive: -0.003	inactive: 0.016	inactive: -0.039	inactive: 0.022	inactive: -0.013	inactive: -0.016	inactive: -0.021	inactive: -0.002	inactive: 0.079	inactive: 0.066	inactive: 0.033	–
CNOT10 isoform 6 (UniProt Q9H9A5)	inactive: -0.052	inactive: 0.014	inactive: -0.035	inactive: 0.01	inactive: 0.04	inactive: 0.01	inactive: -0.028	inactive: -0.01	inactive: -0.041	inactive: 0.007	inactive: -0.037	inactive: -0.033	inactive: 0.004	inactive: 0.028	inactive: -0.065	inactive: -0.082	inactive: 0.045	inactive: 0.056	inactive: 0.098	inactive: 0.038
CHURC1-FNTB (UniProt B4DL54)	inactive: 0.039	inactive: -0.032	inactive: 0.1	inactive: -0.013	inactive: -0.074	inactive: 0.119	inactive: 0.013	inactive: -0.045	inactive: 0.049	inactive: 0.091	inactive: -0.007	inactive: 0.001	inactive: 0.032	inactive: -0.08	inactive: -0.067	inactive: 0.015	inactive: 0.015	inactive: 0.07	inactive: -0.088	–
COL1A1 (UniProt P02452)	inactive: -0.3	inactive: 0.062	inactive: 0.117	inactive: 0.064	inactive: -0.256	inactive: -0.276	inactive: -0.004	inactive: 0.061	inactive: 0.272	inactive: 0.278	inactive: 0.029	inactive: -0.063	inactive: 0.227	inactive: 0.095	inactive: 0.326	inactive: 0.163	inactive: -0.245	inactive: -0.114	inactive: -0.237	–
CISD2 (UniProt Q8N5K1)	inactive: -0.016	inactive: -0.031	inactive: 0.04	inactive: -0.018	inactive: -0.009	inactive: 0.03	inactive: 0	inactive: -0.01	inactive: 0.002	inactive: 0.017	inactive: 0.024	inactive: 0.031	inactive: 0.023	inactive: -0.029	inactive: -0.012	inactive: 0.047	inactive: -0.01	inactive: -0.048	inactive: 0.026	inactive: 0.03
CKMT1A (UniProt P12532)	inactive: -0.007	inactive: -0.04	inactive: -0.03	inactive: 0.034	inactive: 0.005	inactive: 0.023	inactive: -0.02	inactive: -0.005	inactive: -0.015	inactive: 0.03	inactive: 0.048	inactive: -0.002	inactive: -0.009	inactive: -0.012	inactive: -0.015	inactive: 0.071	inactive: -0.016	inactive: 0.002	inactive: -0.039	inactive: 0.005
CKMT2 (UniProt P17540)	inactive: 0.012	inactive: -0.024	inactive: -0.087	inactive: -0.023	inactive: 0.013	inactive: -0.169	inactive: -0.008	inactive: 0.081	inactive: 0.022	inactive: 0.068	inactive: 0.056	inactive: 0.086	inactive: -0.07	inactive: 0.048	inactive: 0.002	inactive: 0.039	inactive: 0.019	inactive: 0.029	inactive: -0.077	inactive: 0.011
COASY isoform 2 (UniProt Q13057)	inactive: -0.022	inactive: 0.1	inactive: 0.042	inactive: -0.067	inactive: 0.032	inactive: 0.01	inactive: 0.076	inactive: 0.043	inactive: -0.011	inactive: 0.092	inactive: 0.039	inactive: 0.004	inactive: -0.016	inactive: -0.032	inactive: -0.063	inactive: 0.037	inactive: -0.02	inactive: 0.005	inactive: 0.079	–
CINP isoform 3 (UniProt Q9BW66)	inactive: 0.006	inactive: -0.039	inactive: -0.007	inactive: 0.016	inactive: 0.033	inactive: 0.032	inactive: -0.022	inactive: -0.006	inactive: 0.001	inactive: 0.032	inactive: 0.043	inactive: 0.07	inactive: 0.02	inactive: -0.05	inactive: -0.029	inactive: 0.097	inactive: 0.029	inactive: 0.007	inactive: 0.045	inactive: 0.062
COCH (UniProt O43405)	inactive: -0.083	inactive: -0.028	inactive: -0.044	inactive: 0.007	inactive: -0.098	inactive: 0.007	inactive: -0.002	inactive: -0.072	inactive: -0.043	inactive: -0.101	inactive: 0.001	inactive: 0.058	inactive: 0.045	inactive: 0.041	active: 0.331	inactive: 0.021	inactive: -0.019	inactive: 0.043	inactive: -0.353	–
CNTN4 (UniProt Q8IWV2)	inactive: 0.284	active: -0.641	inactive: 0.012	inactive: 0.018	inactive: 0.179	inactive: -0.095	inactive: 0.05	inactive: 0.097	inactive: -0.097	inactive: 0.194	inactive: 0.049	inactive: 0.023	inactive: 0.065	inactive: 0.025	inactive: -0.108	inactive: 0.195	inactive: 0.044	inactive: -0.027	inactive: 0.137	–
CHST10 (UniProt O43529)	inactive: 0.013	inactive: -0.168	inactive: -0.144	inactive: -0.058	inactive: -0.111	inactive: 0.03	inactive: 0.067	inactive: 0.101	inactive: 0.008	inactive: 0.06	inactive: 0.056	inactive: -0.062	inactive: -0.135	inactive: 0.059	inactive: 0.042	active: -0.435	inactive: -0.003	inactive: 0.082	inactive: 0.036	–
CNN2 (UniProt Q99439)	inactive: 0.047	inactive: 0.124	inactive: 0.109	inactive: -0.039	inactive: 0.013	inactive: 0.032	inactive: -0.012	inactive: -0.011	inactive: -0.017	inactive: -0.042	inactive: -0.037	inactive: -0.07	inactive: 0.011	inactive: 0.007	inactive: -0.091	inactive: -0.052	inactive: 0.038	inactive: 0.018	inactive: 0.007	–
CIZ1 (UniProt Q9ULV3)	inactive: 0.002	inactive: 0.024	inactive: 0.032	inactive: 0.069	inactive: 0.009	inactive: 0.083	inactive: -0.092	inactive: -0.085	inactive: 0.034	inactive: -0.016	inactive: 0.013	inactive: -0.03	inactive: -0.044	inactive: 0.056	inactive: -0.056	inactive: 0.035	inactive: 0.053	inactive: -0.02	active: -0.248	–

Some of the entries above, reformatted.
Target | log2 fold change (erlotinib) | log2 fold change [1] | log2 fold change [2] | log2 fold change [3] | log2 fold change [4] | log2 fold change [5] | log2 fold change [6] | log2 fold change [7] | log2 fold change [8] | log2 fold change [9] | log2 fold change (IRAK-1-4 Inhibitor I) | log2 fold change (ibrutinib) | log2 fold change [10] | log2 fold change (ralimetinib) | log2 fold change [11] | log2 fold change [12] | log2 fold change [13] | log2 fold change (pinometostat) | log2 fold change [14] | log2 fold change [15]
CNDP2 (UniProt Q96KP4) | inactive: 0.035 | inactive: -0.099 | inactive: 0.058 | inactive: 0.022 | inactive: 0.091 | inactive: -0.024 | inactive: 0.064 | inactive: 0.058 | inactive: 0.023 | inactive: 0.072 | inactive: 0.098 | inactive: 0.002 | inactive: -0.01 | inactive: 0.07 | inactive: -0.005 | inactive: -0.011 | inactive: -0.029 | inactive: -0.035 | inactive: 0.042 | –
CKS1B (UniProt P61024) | inactive: -0.014 | inactive: 0 | inactive: 0.028 | inactive: -0.013 | inactive: 0.044 | inactive: 0.029 | inactive: 0.11 | inactive: -0.045 | inactive: -0.012 | inactive: 0.034 | inactive: -0.011 | inactive: -0.008 | inactive: -0.127 | active: 0.222 | inactive: 0.001 | inactive: 0.027 | inactive: -0.031 | inactive: -0.044 | inactive: 0.054 | –
CNOT4 isoform 6 (UniProt O95628) | inactive: 0.004 | inactive: 0.06 | inactive: 0.026 | inactive: 0.014 | inactive: 0.03 | inactive: 0.003 | inactive: -0.007 | inactive: -0.043 | inactive: -0.011 | inactive: 0.044 | inactive: 0.044 | inactive: 0.016 | inactive: -0.062 | inactive: -0.048 | inactive: 0.002 | inactive: 0.038 | inactive: -0.019 | inactive: -0.025 | inactive: 0.051 | –
